Data: article PMC10000386
No constants are given. Whether binding was seen depends on the method and setting. Binding seen in cells or lysates may run through a third protein. Some entries that bind do so weakly or less than the wild type.

Sequences of proteins named here, by UniProt entry; tags and fusion partners are left off. A change or cut given only in a name is not applied to a line headed by its entry.
UniProt Q07812: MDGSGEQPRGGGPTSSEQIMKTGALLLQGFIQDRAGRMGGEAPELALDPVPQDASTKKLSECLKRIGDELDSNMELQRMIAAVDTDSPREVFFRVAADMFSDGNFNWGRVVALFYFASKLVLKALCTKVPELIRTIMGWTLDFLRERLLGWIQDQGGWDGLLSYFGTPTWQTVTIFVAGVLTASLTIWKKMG
UniProt Q07817: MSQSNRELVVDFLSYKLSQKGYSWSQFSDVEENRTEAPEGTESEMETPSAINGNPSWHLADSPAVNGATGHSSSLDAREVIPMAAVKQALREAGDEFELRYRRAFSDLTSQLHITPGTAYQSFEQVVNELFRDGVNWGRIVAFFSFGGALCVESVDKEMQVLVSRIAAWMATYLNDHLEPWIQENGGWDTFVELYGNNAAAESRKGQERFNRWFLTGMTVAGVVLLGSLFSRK

T1: Bak (human), Q16611
T1 chain: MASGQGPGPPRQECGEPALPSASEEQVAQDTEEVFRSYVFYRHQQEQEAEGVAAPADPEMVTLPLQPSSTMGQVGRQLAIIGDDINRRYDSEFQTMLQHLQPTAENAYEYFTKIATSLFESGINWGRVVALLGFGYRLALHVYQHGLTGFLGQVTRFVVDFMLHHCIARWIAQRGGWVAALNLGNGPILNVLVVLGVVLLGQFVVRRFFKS

T2: Bak (human) (UniProt Q16611)
T2 sequence: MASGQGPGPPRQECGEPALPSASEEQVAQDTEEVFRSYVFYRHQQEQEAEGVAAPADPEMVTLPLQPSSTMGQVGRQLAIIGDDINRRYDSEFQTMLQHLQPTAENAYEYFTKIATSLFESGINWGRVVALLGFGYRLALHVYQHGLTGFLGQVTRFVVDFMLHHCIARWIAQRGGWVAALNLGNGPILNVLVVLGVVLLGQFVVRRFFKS


What was measured:
Mcl-1 (human), Q07820 = test: split reporter; BiFC: VN- and VC-Venus fragment fusions (N-terminal) co-transfected in HeLa cells with an mRFP vector, 30 µM Z-VAD-fmk, 37 °C, 24 h; Venus/mRFP mean fluorescence ratio of mRFP-positive cells by flow cytometry; in some experiments ABT-199, A-1155463 or S63845 added 1 h after transfection (reduced the complexes of Bcl-2, Bcl-XL or Mcl-1 with Bim, Puma and Noxa); conditions: remark: other sources report otherwise
Bcl-2 (human), P10415 = test: as above; conditions: remark: other sources report otherwise
Bax (human), Q07812 [1] = test: as above; conditions: remark: other sources report otherwise
Bak (human), Q16611 [2] = biological target: T1, Bak (human), Q16611; test: as above; conditions: remark: other sources report otherwise
Bax (human), Q07812 [3] = test: split reporter; multicolour BiFC competition: HeLa cells transfected at once with three pBiFC vectors (CN-, VN- and CC-fusions) and an mRFP vector; Cerulean and Venus fluorescence of mRFP-positive cells by flow cytometry 24 h after transfection; conditions: remark: other sources report otherwise
Bak (human), Q16611 [4] = biological target: T1, Bak (human), Q16611; test: as above; conditions: remark: other sources report otherwise
Bax D33A (human) = Bax D33A (human) (UniProt Q07812); test: split reporter; BiFC: VN- and VC-Venus fragment fusions (N-terminal) co-transfected in HeLa cells with an mRFP vector, 30 µM Z-VAD-fmk, 37 °C, 24 h; Venus/mRFP mean fluorescence ratio of mRFP-positive cells by flow cytometry; in some experiments ABT-199, A-1155463 or S63845 added 1 h after transfection (reduced the complexes of Bcl-2, Bcl-XL or Mcl-1 with Bim, Puma and Noxa)
Bax K21E (human) = Bax K21E (human) (UniProt Q07812); test: as above
Bcl-XL (human) = Bcl-XL (human) (UniProt Q07817); test: as above
Bak (human) = biological target: T2, Bak (human); test: as above

Row | Binder | binding (Bax (human), Q07812 [1]) | binding (Bak (human), Q16611 [2]) | binding (Bax (human), Q07812 [3]) | binding (Bak (human), Q16611 [4]) | other results
1 | Noxa (protein, UniProt Q13794 1-54) MPGKKARKNAQPSPARAPAELEVECATQLRRFGDKLNFRQKLLNLISKLFCSGT | – | – | – | – | binding (Bax D33A (human)): binds; binding (Bax K21E (human)): binds; binding (Bcl-XL (human)): binds weakly
2 | Puma, Q9BXH1 1-193 (protein) MARARQEGSSPEPVEGLARDGPRPFPLGRLVPSAVSCGLCEPGLAAAPAAPTLLPAAYLCAPTAPPAVTAALGGSRWPGGPRSRPRGPRPDGPQPSLSLAEQHLESPVPSAPGALAGGPTQAAPGVRGEEEQWAREIGAQLRRMADDLNAQYERRRQEEQQRHRPSPWRVLYNLIMGLLPLPRGHRAPEMEPN | binds | binds | binds | binds | –
3 | Bak H164A (protein, UniProt Q16611 1-211) MASGQGPGPPRQECGEPALPSASEEQVAQDTEEVFRSYVFYRHQQEQEAEGVAAPADPEMVTLPLQPSSTMGQVGRQLAIIGDDINRRYDSEFQTMLQHLQPTAENAYEYFTKIATSLFESGINWGRVVALLGFGYRLALHVYQHGLTGFLGQVTRFVVDFMLAHCIARWIAQRGGWVAALNLGNGPILNVLVVLGVVLLGQFVVRRFFKS | – | – | – | – | binding (Bak (human)): binds

More lines, main results first:

Row | binding (Bax (human), Q07812 [1]) | binding (Bak (human), Q16611 [2]) | binding (Bax (human), Q07812 [3]) | binding (Bak (human), Q16611 [4]) | Binder | other results
4 | binds | binds | binds | binds | Noxa, Q13794 1-54 (protein) MPGKKARKNAQPSPARAPAELEVECATQLRRFGDKLNFRQKLLNLISKLFCSGT | binding (Mcl-1 (human), Q07820): binds; binding (Bcl-2 (human), P10415): binds
5 | – | binds | – | – | Bak, Q16611 1-211 (protein) MASGQGPGPPRQECGEPALPSASEEQVAQDTEEVFRSYVFYRHQQEQEAEGVAAPADPEMVTLPLQPSSTMGQVGRQLAIIGDDINRRYDSEFQTMLQHLQPTAENAYEYFTKIATSLFESGINWGRVVALLGFGYRLALHVYQHGLTGFLGQVTRFVVDFMLHHCIARWIAQRGGWVAALNLGNGPILNVLVVLGVVLLGQFVVRRFFKS | –
